Results are given in words; binding and its absence hold for the method and conditions named. In cells and extracts the contact can be indirect. Some results given as binding are weak or reduced against the parent protein; the word gives no strength. For some assays here: Sequences can lack the tags named with a protein. One block for each molecule: values may come before it.
Columns and labels:
[1] = target: MLL1 (293 T cells) (human (endogenous in 293 T)) (UniProt Q03164); experiment: co-IP; MLL1 precipitated (control IgG beside it) from 293 T cells expressing Flag-tagged KDM3A or HA-tagged KDM3B
[2] = target: endogenous MLL1 (HCT116 cells) (human (endogenous in HCT116)) (UniProt Q03164); experiment: co-IP; endogenous MLL1 with endogenous KDM3A and KDM3B in HCT116 cells
[3] = target: T1, endogenous KDM3A (293 T cells) (human (endogenous in 293 T)) (UniProt Q9Y4C1); experiment: co-IP; endogenous proteins; antibodies against endogenous KDM3A and KDM3B; nuclear extract of 293 T cells, with Wnt3a stimulation
T1 sequence: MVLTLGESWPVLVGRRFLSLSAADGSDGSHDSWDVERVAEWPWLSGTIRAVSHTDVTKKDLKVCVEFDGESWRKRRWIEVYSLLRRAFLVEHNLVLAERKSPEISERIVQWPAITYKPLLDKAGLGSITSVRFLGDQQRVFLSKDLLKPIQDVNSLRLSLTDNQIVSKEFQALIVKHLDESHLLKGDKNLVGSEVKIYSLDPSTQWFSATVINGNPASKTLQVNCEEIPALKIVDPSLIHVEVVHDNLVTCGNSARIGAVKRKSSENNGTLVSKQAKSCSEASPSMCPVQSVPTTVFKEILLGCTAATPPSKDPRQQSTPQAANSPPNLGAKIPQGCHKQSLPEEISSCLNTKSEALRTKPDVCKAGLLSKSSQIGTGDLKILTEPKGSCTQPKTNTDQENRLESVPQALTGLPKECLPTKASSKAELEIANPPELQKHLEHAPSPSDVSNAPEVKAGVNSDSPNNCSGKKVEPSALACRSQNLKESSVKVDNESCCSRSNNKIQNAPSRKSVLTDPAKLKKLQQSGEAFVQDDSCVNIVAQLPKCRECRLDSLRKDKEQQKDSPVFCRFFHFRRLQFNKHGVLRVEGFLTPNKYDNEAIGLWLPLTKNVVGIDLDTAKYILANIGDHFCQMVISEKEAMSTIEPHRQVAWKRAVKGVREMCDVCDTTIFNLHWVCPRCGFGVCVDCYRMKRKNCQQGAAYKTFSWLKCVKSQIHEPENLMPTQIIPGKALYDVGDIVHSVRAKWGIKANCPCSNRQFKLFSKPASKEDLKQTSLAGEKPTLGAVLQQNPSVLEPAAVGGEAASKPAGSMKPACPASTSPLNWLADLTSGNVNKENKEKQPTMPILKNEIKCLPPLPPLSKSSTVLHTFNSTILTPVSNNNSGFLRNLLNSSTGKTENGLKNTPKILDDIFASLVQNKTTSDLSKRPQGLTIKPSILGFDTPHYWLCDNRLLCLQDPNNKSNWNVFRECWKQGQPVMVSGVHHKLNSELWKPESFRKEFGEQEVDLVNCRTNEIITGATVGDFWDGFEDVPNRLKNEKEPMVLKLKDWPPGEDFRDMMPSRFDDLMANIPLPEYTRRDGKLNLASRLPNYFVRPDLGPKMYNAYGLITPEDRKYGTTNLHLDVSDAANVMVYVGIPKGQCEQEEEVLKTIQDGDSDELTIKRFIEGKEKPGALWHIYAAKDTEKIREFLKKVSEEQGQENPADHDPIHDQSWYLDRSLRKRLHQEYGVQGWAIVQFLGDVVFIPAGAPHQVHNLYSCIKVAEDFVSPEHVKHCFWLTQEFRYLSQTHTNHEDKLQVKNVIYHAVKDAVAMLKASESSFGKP

Chains of the proteins cited; added tags and fusions are not shown.
UniProt Q03164: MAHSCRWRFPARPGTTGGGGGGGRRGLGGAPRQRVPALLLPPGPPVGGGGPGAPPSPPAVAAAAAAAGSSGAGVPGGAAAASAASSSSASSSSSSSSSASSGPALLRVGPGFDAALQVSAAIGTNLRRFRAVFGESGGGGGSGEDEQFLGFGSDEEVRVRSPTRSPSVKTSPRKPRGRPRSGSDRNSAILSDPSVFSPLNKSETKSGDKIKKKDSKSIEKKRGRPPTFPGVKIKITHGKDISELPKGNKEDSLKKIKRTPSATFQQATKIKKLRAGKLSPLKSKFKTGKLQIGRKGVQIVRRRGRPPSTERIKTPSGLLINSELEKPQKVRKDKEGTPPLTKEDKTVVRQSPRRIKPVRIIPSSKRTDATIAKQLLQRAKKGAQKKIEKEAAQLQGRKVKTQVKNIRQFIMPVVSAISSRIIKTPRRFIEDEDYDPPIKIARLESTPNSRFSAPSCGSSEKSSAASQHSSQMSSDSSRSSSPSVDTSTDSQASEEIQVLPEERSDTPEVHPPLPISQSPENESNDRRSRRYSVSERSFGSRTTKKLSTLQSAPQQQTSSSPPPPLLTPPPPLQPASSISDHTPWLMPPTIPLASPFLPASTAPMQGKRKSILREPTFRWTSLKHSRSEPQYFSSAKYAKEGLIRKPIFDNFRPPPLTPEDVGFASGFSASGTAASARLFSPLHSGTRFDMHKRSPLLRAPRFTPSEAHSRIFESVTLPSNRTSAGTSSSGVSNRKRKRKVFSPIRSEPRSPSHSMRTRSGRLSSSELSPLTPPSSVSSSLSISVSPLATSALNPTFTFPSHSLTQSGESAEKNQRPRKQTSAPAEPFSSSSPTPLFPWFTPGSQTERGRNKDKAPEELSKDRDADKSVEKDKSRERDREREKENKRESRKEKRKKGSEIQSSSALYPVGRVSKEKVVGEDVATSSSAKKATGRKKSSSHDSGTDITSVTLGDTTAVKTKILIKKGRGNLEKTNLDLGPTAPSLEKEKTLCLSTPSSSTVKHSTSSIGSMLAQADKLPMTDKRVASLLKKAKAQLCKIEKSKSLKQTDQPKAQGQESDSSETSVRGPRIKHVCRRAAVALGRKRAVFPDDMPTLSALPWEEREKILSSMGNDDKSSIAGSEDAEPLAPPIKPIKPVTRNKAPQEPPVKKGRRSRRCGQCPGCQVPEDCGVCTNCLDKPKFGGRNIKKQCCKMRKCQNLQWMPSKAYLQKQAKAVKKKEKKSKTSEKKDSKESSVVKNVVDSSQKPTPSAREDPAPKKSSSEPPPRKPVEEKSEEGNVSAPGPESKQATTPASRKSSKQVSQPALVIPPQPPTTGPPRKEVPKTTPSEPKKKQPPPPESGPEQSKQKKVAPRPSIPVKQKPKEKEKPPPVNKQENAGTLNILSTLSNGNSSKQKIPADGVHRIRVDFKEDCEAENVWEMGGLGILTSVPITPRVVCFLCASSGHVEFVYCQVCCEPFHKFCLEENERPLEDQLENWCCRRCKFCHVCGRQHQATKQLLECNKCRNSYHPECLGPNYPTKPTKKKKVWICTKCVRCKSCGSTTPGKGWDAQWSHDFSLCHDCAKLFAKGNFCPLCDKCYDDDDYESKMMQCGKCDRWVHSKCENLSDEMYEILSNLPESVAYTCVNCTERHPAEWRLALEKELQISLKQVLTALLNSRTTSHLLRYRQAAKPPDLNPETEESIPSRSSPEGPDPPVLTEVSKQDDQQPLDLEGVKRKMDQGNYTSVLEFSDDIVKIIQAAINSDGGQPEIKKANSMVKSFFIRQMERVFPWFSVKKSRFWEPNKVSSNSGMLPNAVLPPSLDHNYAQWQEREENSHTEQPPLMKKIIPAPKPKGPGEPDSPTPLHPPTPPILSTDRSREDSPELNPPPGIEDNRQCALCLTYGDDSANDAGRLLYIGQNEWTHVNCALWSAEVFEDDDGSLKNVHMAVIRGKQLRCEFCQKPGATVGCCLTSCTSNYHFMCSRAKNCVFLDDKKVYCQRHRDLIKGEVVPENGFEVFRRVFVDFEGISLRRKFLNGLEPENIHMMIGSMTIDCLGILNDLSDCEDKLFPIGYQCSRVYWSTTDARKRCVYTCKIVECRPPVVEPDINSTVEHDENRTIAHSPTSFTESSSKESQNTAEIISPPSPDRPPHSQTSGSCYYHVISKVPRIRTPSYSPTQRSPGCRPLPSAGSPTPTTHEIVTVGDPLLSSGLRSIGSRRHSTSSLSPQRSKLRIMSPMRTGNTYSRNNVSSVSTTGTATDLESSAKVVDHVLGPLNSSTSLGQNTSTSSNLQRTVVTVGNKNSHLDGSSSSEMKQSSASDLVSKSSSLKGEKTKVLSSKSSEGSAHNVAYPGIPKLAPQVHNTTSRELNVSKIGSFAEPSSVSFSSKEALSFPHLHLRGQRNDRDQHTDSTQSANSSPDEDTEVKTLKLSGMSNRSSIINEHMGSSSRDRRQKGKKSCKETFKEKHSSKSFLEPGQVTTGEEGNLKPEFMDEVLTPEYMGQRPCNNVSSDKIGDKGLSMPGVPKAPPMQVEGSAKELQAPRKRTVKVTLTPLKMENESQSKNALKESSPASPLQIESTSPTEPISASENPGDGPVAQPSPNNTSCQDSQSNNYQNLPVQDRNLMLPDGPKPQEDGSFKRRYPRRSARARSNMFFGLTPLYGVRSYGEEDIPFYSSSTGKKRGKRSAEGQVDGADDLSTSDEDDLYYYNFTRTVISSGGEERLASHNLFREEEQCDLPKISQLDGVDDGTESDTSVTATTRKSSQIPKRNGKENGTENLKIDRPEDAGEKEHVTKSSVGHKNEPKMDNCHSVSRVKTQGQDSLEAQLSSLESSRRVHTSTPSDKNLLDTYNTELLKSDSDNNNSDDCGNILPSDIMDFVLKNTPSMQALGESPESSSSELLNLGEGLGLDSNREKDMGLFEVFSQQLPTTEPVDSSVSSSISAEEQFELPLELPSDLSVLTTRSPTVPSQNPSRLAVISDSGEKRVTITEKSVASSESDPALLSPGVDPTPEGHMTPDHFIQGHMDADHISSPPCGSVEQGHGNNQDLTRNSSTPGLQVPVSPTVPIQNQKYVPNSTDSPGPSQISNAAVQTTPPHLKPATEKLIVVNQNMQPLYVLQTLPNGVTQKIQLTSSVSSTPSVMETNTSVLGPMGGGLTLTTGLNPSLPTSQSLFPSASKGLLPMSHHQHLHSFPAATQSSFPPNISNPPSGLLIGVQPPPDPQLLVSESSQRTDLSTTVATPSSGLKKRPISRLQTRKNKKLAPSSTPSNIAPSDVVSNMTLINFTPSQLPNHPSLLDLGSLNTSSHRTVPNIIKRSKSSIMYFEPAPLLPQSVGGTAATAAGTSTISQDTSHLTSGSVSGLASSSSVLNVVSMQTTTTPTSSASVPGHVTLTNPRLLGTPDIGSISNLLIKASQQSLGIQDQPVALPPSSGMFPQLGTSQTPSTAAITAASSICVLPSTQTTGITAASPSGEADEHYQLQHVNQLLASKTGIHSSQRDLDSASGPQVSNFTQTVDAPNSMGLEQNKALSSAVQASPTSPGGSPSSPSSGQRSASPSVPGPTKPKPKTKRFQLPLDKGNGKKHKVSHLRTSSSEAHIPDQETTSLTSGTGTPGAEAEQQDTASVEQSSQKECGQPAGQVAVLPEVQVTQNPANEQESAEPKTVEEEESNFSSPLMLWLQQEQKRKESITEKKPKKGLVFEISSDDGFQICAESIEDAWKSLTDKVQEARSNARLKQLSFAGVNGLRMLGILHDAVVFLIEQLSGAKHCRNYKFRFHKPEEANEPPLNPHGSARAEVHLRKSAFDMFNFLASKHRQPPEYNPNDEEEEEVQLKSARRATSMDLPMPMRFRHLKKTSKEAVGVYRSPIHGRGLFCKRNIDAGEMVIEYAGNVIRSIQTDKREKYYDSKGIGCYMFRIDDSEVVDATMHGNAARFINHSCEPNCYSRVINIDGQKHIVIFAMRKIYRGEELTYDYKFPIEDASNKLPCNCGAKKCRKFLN
UniProt Q7LBC6: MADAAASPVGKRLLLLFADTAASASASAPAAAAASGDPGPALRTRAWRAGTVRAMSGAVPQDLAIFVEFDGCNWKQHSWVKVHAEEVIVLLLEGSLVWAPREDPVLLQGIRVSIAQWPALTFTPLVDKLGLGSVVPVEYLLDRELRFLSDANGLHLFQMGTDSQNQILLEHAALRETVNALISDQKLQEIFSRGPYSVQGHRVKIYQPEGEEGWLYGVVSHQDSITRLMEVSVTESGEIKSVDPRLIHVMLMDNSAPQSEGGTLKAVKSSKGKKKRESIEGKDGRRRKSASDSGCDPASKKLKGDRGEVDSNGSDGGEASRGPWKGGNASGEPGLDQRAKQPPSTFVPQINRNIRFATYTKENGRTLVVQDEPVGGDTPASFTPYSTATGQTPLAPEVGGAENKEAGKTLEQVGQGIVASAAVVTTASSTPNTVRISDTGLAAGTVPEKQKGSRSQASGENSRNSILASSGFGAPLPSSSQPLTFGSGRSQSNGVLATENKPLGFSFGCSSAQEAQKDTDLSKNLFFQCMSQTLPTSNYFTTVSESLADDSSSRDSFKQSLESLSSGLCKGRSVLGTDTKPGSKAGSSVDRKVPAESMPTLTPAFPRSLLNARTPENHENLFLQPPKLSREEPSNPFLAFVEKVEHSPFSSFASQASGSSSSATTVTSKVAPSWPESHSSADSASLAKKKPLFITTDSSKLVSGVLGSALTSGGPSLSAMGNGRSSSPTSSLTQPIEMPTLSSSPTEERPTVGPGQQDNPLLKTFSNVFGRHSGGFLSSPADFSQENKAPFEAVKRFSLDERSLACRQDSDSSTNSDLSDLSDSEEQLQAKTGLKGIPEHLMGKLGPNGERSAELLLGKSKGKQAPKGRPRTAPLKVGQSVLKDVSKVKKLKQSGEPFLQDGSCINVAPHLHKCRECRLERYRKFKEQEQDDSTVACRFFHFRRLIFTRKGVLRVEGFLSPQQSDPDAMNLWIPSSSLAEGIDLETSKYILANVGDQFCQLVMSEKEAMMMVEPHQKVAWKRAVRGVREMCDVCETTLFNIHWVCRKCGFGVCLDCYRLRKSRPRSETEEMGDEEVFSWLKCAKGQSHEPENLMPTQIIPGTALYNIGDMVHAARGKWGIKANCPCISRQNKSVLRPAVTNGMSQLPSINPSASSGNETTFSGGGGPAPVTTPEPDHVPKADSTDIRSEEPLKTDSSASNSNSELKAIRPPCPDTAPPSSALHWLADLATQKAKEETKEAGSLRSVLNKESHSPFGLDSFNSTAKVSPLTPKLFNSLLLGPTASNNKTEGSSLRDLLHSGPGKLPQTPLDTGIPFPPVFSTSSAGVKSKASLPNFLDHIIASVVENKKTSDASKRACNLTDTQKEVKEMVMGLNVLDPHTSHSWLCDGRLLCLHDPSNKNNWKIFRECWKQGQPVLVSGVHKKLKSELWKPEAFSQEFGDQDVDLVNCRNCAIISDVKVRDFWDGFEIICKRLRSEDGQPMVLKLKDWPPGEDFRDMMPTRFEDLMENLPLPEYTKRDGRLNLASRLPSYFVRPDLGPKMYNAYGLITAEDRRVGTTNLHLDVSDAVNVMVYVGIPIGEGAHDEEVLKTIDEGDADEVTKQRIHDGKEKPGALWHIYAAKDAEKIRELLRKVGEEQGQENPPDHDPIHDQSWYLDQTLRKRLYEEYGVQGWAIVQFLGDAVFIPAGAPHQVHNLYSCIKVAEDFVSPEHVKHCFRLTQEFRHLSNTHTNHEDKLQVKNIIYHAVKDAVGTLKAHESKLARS
UniProt P35222: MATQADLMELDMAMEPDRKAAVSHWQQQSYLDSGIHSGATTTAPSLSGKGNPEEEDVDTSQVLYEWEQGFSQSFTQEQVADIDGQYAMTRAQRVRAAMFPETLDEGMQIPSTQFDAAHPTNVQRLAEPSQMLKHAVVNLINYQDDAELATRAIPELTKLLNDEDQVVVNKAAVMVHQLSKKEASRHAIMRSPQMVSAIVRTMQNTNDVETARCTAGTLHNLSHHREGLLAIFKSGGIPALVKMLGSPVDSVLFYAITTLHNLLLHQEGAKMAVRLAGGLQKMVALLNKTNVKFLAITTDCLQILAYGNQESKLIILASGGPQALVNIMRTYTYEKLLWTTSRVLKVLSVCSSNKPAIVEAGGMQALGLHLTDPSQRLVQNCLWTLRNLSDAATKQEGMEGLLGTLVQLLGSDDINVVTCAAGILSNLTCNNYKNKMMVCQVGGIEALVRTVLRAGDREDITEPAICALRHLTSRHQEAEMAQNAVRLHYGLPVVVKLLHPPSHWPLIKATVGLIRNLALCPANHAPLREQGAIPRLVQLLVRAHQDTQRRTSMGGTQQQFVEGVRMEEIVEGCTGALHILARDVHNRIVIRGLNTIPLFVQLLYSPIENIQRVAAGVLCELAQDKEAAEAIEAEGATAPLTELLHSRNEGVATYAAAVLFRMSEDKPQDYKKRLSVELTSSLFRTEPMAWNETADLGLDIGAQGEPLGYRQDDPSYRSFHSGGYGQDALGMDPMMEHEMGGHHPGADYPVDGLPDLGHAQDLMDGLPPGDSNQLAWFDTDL

[4] = target: endogenous KDM3B (293 T cells) (human (endogenous in 293 T)) (UniProt Q7LBC6); experiment: as above
[5] = target: recombinant glutathione S-transferase fusion β-catenin (UniProt P35222); experiment: pull-down; GST pull-down: recombinant GST fusion β-catenin with in vitro translated KDM3A or KDM3B; only the target purified

Molecule: endogenous β-catenin (293 T cells) (from UniProt P35222 1-781)
binding [3]: binds
binding [4]: binds

B1: endogenous KDM3A (HCT116 cells) (enzyme, UniProt Q9Y4C1 1-1321)
chain: MVLTLGESWPVLVGRRFLSLSAADGSDGSHDSWDVERVAEWPWLSGTIRAVSHTDVTKKDLKVCVEFDGESWRKRRWIEVYSLLRRAFLVEHNLVLAERKSPEISERIVQWPAITYKPLLDKAGLGSITSVRFLGDQQRVFLSKDLLKPIQDVNSLRLSLTDNQIVSKEFQALIVKHLDESHLLKGDKNLVGSEVKIYSLDPSTQWFSATVINGNPASKTLQVNCEEIPALKIVDPSLIHVEVVHDNLVTCGNSARIGAVKRKSSENNGTLVSKQAKSCSEASPSMCPVQSVPTTVFKEILLGCTAATPPSKDPRQQSTPQAANSPPNLGAKIPQGCHKQSLPEEISSCLNTKSEALRTKPDVCKAGLLSKSSQIGTGDLKILTEPKGSCTQPKTNTDQENRLESVPQALTGLPKECLPTKASSKAELEIANPPELQKHLEHAPSPSDVSNAPEVKAGVNSDSPNNCSGKKVEPSALACRSQNLKESSVKVDNESCCSRSNNKIQNAPSRKSVLTDPAKLKKLQQSGEAFVQDDSCVNIVAQLPKCRECRLDSLRKDKEQQKDSPVFCRFFHFRRLQFNKHGVLRVEGFLTPNKYDNEAIGLWLPLTKNVVGIDLDTAKYILANIGDHFCQMVISEKEAMSTIEPHRQVAWKRAVKGVREMCDVCDTTIFNLHWVCPRCGFGVCVDCYRMKRKNCQQGAAYKTFSWLKCVKSQIHEPENLMPTQIIPGKALYDVGDIVHSVRAKWGIKANCPCSNRQFKLFSKPASKEDLKQTSLAGEKPTLGAVLQQNPSVLEPAAVGGEAASKPAGSMKPACPASTSPLNWLADLTSGNVNKENKEKQPTMPILKNEIKCLPPLPPLSKSSTVLHTFNSTILTPVSNNNSGFLRNLLNSSTGKTENGLKNTPKILDDIFASLVQNKTTSDLSKRPQGLTIKPSILGFDTPHYWLCDNRLLCLQDPNNKSNWNVFRECWKQGQPVMVSGVHHKLNSELWKPESFRKEFGEQEVDLVNCRTNEIITGATVGDFWDGFEDVPNRLKNEKEPMVLKLKDWPPGEDFRDMMPSRFDDLMANIPLPEYTRRDGKLNLASRLPNYFVRPDLGPKMYNAYGLITPEDRKYGTTNLHLDVSDAANVMVYVGIPKGQCEQEEEVLKTIQDGDSDELTIKRFIEGKEKPGALWHIYAAKDTEKIREFLKKVSEEQGQENPADHDPIHDQSWYLDRSLRKRLHQEYGVQGWAIVQFLGDVVFIPAGAPHQVHNLYSCIKVAEDFVSPEHVKHCFWLTQEFRYLSQTHTNHEDKLQVKNVIYHAVKDAVAMLKASESSFGKP
binding [2]: binds

B2: in vitro translated KDM3A (enzyme, UniProt Q9Y4C1 1-1321)
chain: MVLTLGESWPVLVGRRFLSLSAADGSDGSHDSWDVERVAEWPWLSGTIRAVSHTDVTKKDLKVCVEFDGESWRKRRWIEVYSLLRRAFLVEHNLVLAERKSPEISERIVQWPAITYKPLLDKAGLGSITSVRFLGDQQRVFLSKDLLKPIQDVNSLRLSLTDNQIVSKEFQALIVKHLDESHLLKGDKNLVGSEVKIYSLDPSTQWFSATVINGNPASKTLQVNCEEIPALKIVDPSLIHVEVVHDNLVTCGNSARIGAVKRKSSENNGTLVSKQAKSCSEASPSMCPVQSVPTTVFKEILLGCTAATPPSKDPRQQSTPQAANSPPNLGAKIPQGCHKQSLPEEISSCLNTKSEALRTKPDVCKAGLLSKSSQIGTGDLKILTEPKGSCTQPKTNTDQENRLESVPQALTGLPKECLPTKASSKAELEIANPPELQKHLEHAPSPSDVSNAPEVKAGVNSDSPNNCSGKKVEPSALACRSQNLKESSVKVDNESCCSRSNNKIQNAPSRKSVLTDPAKLKKLQQSGEAFVQDDSCVNIVAQLPKCRECRLDSLRKDKEQQKDSPVFCRFFHFRRLQFNKHGVLRVEGFLTPNKYDNEAIGLWLPLTKNVVGIDLDTAKYILANIGDHFCQMVISEKEAMSTIEPHRQVAWKRAVKGVREMCDVCDTTIFNLHWVCPRCGFGVCVDCYRMKRKNCQQGAAYKTFSWLKCVKSQIHEPENLMPTQIIPGKALYDVGDIVHSVRAKWGIKANCPCSNRQFKLFSKPASKEDLKQTSLAGEKPTLGAVLQQNPSVLEPAAVGGEAASKPAGSMKPACPASTSPLNWLADLTSGNVNKENKEKQPTMPILKNEIKCLPPLPPLSKSSTVLHTFNSTILTPVSNNNSGFLRNLLNSSTGKTENGLKNTPKILDDIFASLVQNKTTSDLSKRPQGLTIKPSILGFDTPHYWLCDNRLLCLQDPNNKSNWNVFRECWKQGQPVMVSGVHHKLNSELWKPESFRKEFGEQEVDLVNCRTNEIITGATVGDFWDGFEDVPNRLKNEKEPMVLKLKDWPPGEDFRDMMPSRFDDLMANIPLPEYTRRDGKLNLASRLPNYFVRPDLGPKMYNAYGLITPEDRKYGTTNLHLDVSDAANVMVYVGIPKGQCEQEEEVLKTIQDGDSDELTIKRFIEGKEKPGALWHIYAAKDTEKIREFLKKVSEEQGQENPADHDPIHDQSWYLDRSLRKRLHQEYGVQGWAIVQFLGDVVFIPAGAPHQVHNLYSCIKVAEDFVSPEHVKHCFWLTQEFRYLSQTHTNHEDKLQVKNVIYHAVKDAVAMLKASESSFGKP
binding [5]: binds

Further lines, results first:

binding [1]: binds
Molecule: HA-tagged KDM3B (from UniProt Q7LBC6 1-1761) (enzyme)

binding [2]: binds
Molecule: endogenous KDM3B (HCT116 cells) (from UniProt Q7LBC6 1-1761) (enzyme)

binding [5]: binds
Molecule: in vitro translated KDM3B (from UniProt Q7LBC6 1-1761) (enzyme)

binding [1]: binds
B3: Flag-tagged KDM3A (enzyme, UniProt Q9Y4C1 1-1321)
chain: MVLTLGESWPVLVGRRFLSLSAADGSDGSHDSWDVERVAEWPWLSGTIRAVSHTDVTKKDLKVCVEFDGESWRKRRWIEVYSLLRRAFLVEHNLVLAERKSPEISERIVQWPAITYKPLLDKAGLGSITSVRFLGDQQRVFLSKDLLKPIQDVNSLRLSLTDNQIVSKEFQALIVKHLDESHLLKGDKNLVGSEVKIYSLDPSTQWFSATVINGNPASKTLQVNCEEIPALKIVDPSLIHVEVVHDNLVTCGNSARIGAVKRKSSENNGTLVSKQAKSCSEASPSMCPVQSVPTTVFKEILLGCTAATPPSKDPRQQSTPQAANSPPNLGAKIPQGCHKQSLPEEISSCLNTKSEALRTKPDVCKAGLLSKSSQIGTGDLKILTEPKGSCTQPKTNTDQENRLESVPQALTGLPKECLPTKASSKAELEIANPPELQKHLEHAPSPSDVSNAPEVKAGVNSDSPNNCSGKKVEPSALACRSQNLKESSVKVDNESCCSRSNNKIQNAPSRKSVLTDPAKLKKLQQSGEAFVQDDSCVNIVAQLPKCRECRLDSLRKDKEQQKDSPVFCRFFHFRRLQFNKHGVLRVEGFLTPNKYDNEAIGLWLPLTKNVVGIDLDTAKYILANIGDHFCQMVISEKEAMSTIEPHRQVAWKRAVKGVREMCDVCDTTIFNLHWVCPRCGFGVCVDCYRMKRKNCQQGAAYKTFSWLKCVKSQIHEPENLMPTQIIPGKALYDVGDIVHSVRAKWGIKANCPCSNRQFKLFSKPASKEDLKQTSLAGEKPTLGAVLQQNPSVLEPAAVGGEAASKPAGSMKPACPASTSPLNWLADLTSGNVNKENKEKQPTMPILKNEIKCLPPLPPLSKSSTVLHTFNSTILTPVSNNNSGFLRNLLNSSTGKTENGLKNTPKILDDIFASLVQNKTTSDLSKRPQGLTIKPSILGFDTPHYWLCDNRLLCLQDPNNKSNWNVFRECWKQGQPVMVSGVHHKLNSELWKPESFRKEFGEQEVDLVNCRTNEIITGATVGDFWDGFEDVPNRLKNEKEPMVLKLKDWPPGEDFRDMMPSRFDDLMANIPLPEYTRRDGKLNLASRLPNYFVRPDLGPKMYNAYGLITPEDRKYGTTNLHLDVSDAANVMVYVGIPKGQCEQEEEVLKTIQDGDSDELTIKRFIEGKEKPGALWHIYAAKDTEKIREFLKKVSEEQGQENPADHDPIHDQSWYLDRSLRKRLHQEYGVQGWAIVQFLGDVVFIPAGAPHQVHNLYSCIKVAEDFVSPEHVKHCFWLTQEFRYLSQTHTNHEDKLQVKNVIYHAVKDAVAMLKASESSFGKP
